In patent US20210275685A1:
Substitutions are numbered along the chain they refer to. No constants are given. Whether binding was seen depends on the method and setting. Some binding calls cover weakened binding; strength is not graded here.

Protein sequences, listed by entry. Tags and fused reporters are not part of them. Lines headed by an entry give the natural chain unless they say otherwise; changes in a name come on top.
UniProt Q13443: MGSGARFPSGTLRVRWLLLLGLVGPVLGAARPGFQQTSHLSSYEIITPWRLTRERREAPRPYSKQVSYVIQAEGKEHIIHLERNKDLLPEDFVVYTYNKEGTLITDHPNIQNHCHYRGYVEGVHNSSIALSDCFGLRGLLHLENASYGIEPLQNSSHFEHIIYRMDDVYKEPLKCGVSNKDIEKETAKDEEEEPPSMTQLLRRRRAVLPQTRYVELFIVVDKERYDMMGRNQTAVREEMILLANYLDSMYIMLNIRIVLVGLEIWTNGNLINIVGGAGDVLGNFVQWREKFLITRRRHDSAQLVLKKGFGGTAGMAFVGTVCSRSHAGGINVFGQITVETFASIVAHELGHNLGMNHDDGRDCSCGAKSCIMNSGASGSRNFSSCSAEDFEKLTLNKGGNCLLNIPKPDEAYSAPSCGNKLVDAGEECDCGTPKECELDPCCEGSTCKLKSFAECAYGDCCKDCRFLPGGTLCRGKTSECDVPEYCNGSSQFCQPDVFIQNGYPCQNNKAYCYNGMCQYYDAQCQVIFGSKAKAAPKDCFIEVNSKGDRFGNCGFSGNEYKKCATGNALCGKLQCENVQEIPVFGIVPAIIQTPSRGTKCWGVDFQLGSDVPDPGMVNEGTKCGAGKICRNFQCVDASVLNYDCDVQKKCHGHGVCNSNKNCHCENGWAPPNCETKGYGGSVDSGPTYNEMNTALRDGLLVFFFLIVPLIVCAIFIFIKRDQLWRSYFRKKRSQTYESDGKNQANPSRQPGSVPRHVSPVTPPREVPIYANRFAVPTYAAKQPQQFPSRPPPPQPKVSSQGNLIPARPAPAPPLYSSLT

B1: hMAB-A (2A.2) (antibody, V domains shown)
VH: EVQLVESGGGLVKPGGSLRLSCAASGFTFSSYWMHWVRQAPGKGLEWVGEIIPIFGHTNYNEKFKSRFTISLDNSKNTLYLQMGSLRAEDTAVYYCARGGYYYYFNSGTLDYWGQGTTVTVSS
VL: DIVMTQSPDSLAVSLGERATISCKASQSVDYSGDSYMNWYQQKPGQPPKLLIYAASDLESGIPARFSGSGSGTDFTLTISSLEPEDFATYYCQQSHEDPFTFGQGTKLEIK
B2: hMAB-A (2B.2) (antibody, V domains shown)
VH: B1 VH with F105I, N106G, S107K, T109V
VL: B1 VL
B3: hMAB-A (2C.2) (antibody, V domains shown)
VH: B1 VH with F105P, N106R, S107F, T109W
VL: B1 VL
B4: hMAB-A (2D.2) (antibody, V domains shown)
VH: B1 VH with F105T, N106G, S107K, T109V
VL: B1 VL
B5: hMAB-A (2E.2) (antibody, V domains shown)
VH: B1 VH with F105D, N106S, S107N, G108A, T109V
VL: B1 VL
B6: hMAB-A (2F.2) (antibody, V domains shown)
VH: B1 VH with N106H
VL: B1 VL
B7: hMAB-A (2G.2) (antibody, V domains shown)
VH: B1 VH with S107K, G108A, T109V
VL: B1 VL
B8: hMAB-A (2H.2) (antibody, V domains shown)
VH: B1 VH with F105G, N106G, T109V
VL: B1 VL
B9: hMAB-A (2J.2) (antibody, V domains shown)
VH: B1 VH with F105Y
VL: B1 VL
B10: hMAB-A (2.2) (antibody, V domains shown)
VH: B1 VH with F105G, N106S, S107R, G108D, T109Y, L110F
VL: B1 VL
B11: hMAB-A (4.4) (antibody, V domains shown)
VH: B1 VH with M34I, K63R, K65Q, S66G, F105G, N106S, S107R, G108D, T109Y, L110F
VL: B1 VL with K24R, M37L, H96Y, E97S, D98T
B12: hMAB-A (1.1) (antibody, V domains shown)
VH: B1 VH with F55N, F105G, N106S, S107R, G108D, T109Y, L110F
VL: B1 VL with S32D
B13: hMAB-A (2.3) (antibody, V domains shown)
VH: B1 VH with F105G, N106S, S107R, G108D, T109Y, L110F
VL: B1 VL with K24R
B14: hMAB-A (3.3) (antibody, V domains shown)
VH: B1 VH with K63R, K65Q, S66G, F105G, N106S, S107R, G108D, T109Y, L110F
VL: B1 VL with K24R

target: His-tagged soluble human ADAM9 (human) (UniProt Q13443); assay: ELISA (RLU): huADAM9-His (1 µg/mL) captured by plate-coated anti-His antibody, antibody diluted 0.03-1 µg/ml

| Binder | binding |
| --- | --- |
| B1 | binds |
| B2 | binds |
| B3 | binds |
| B4 | binds |
| B5 | binds |
| B6 | binds |
| B7 | binds |
| B8 | binds |
| B9 | binds |
| B10 | binds |

target: His-tagged soluble human ADAM9 (human) (UniProt Q13443); assay: BIACORE

| Binder | binding |
| --- | --- |
| B2 | binds |
| B3 | binds |
| B4 | binds |
| B10 | binds |
| B11 | binds |
| B12 | binds |
| B13 | binds |
| B14 | binds |

target: His-tagged soluble human ADAM9 (human) (UniProt Q13443); assay: ELISA; huADAM9-His (1 µg/mL) captured by anti-His antibody, serial dilutions of antibody

| Binder | binding |
| --- | --- |
| B2 | binds |
| B3 | binds |
| B4 | binds |
